According to the supplement of paper PMC10849652:
The list shows a part of the results.

Amino acid sequences for entries named in this document (tags omitted). A change or cut given only in a name is not applied to a line headed by its entry.
UniProt O75531: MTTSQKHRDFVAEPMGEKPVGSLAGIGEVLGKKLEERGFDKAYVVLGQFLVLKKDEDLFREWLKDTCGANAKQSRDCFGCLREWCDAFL
UniProt Q9NXR7, whole entry, looked up: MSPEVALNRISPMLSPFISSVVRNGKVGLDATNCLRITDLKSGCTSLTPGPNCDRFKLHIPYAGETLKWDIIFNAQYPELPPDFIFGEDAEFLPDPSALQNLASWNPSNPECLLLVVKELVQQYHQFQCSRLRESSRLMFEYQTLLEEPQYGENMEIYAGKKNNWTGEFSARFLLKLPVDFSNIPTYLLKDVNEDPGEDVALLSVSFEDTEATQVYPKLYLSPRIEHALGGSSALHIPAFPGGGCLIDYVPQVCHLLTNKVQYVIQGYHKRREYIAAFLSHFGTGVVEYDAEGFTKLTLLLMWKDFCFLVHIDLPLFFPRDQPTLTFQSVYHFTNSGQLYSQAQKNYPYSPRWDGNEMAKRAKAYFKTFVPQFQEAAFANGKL
UniProt P54132: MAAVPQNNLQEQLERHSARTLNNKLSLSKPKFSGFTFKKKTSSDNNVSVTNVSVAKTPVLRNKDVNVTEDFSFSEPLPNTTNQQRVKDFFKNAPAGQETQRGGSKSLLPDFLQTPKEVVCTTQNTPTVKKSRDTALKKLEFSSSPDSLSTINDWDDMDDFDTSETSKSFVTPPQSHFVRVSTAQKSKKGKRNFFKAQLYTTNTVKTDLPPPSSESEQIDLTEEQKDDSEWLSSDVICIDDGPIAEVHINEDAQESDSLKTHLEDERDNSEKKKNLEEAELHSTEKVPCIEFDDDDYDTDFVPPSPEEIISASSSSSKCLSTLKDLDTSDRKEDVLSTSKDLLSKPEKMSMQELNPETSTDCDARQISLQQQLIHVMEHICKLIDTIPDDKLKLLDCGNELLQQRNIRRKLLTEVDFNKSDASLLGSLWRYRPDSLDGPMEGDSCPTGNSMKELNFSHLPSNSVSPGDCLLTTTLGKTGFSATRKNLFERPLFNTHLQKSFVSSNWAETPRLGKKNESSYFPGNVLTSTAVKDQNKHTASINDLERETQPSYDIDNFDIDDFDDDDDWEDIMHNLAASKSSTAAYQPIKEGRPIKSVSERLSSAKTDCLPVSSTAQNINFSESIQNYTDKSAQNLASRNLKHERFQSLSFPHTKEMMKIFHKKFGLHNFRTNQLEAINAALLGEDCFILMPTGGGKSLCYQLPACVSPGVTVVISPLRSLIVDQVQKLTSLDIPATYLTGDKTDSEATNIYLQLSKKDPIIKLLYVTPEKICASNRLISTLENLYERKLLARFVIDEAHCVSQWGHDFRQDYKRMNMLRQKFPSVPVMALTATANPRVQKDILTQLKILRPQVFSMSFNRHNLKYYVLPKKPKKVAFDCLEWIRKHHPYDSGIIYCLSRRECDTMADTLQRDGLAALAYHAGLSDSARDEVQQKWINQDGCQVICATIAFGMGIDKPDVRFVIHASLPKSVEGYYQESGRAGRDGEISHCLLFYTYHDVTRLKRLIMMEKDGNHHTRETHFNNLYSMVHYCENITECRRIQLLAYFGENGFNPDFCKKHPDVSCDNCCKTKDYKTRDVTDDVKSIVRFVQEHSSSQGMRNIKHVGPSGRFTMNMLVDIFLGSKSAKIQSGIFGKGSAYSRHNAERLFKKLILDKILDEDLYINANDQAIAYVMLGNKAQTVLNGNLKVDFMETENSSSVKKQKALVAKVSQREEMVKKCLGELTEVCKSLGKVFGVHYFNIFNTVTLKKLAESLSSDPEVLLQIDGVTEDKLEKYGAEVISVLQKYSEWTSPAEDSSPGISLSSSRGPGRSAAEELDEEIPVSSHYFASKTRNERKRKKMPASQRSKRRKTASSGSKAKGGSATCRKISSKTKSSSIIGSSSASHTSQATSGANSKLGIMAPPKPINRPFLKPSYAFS
UniProt Q12981: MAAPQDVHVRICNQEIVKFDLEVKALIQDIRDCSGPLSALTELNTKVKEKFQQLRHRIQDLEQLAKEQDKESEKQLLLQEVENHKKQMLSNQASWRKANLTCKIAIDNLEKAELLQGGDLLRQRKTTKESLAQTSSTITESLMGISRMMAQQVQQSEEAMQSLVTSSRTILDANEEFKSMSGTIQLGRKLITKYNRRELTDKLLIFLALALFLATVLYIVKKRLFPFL
UniProt Q9H3K6: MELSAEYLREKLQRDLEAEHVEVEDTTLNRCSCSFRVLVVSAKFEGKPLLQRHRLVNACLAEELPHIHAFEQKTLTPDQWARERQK
UniProt Q9NSY1, whole entry, looked up: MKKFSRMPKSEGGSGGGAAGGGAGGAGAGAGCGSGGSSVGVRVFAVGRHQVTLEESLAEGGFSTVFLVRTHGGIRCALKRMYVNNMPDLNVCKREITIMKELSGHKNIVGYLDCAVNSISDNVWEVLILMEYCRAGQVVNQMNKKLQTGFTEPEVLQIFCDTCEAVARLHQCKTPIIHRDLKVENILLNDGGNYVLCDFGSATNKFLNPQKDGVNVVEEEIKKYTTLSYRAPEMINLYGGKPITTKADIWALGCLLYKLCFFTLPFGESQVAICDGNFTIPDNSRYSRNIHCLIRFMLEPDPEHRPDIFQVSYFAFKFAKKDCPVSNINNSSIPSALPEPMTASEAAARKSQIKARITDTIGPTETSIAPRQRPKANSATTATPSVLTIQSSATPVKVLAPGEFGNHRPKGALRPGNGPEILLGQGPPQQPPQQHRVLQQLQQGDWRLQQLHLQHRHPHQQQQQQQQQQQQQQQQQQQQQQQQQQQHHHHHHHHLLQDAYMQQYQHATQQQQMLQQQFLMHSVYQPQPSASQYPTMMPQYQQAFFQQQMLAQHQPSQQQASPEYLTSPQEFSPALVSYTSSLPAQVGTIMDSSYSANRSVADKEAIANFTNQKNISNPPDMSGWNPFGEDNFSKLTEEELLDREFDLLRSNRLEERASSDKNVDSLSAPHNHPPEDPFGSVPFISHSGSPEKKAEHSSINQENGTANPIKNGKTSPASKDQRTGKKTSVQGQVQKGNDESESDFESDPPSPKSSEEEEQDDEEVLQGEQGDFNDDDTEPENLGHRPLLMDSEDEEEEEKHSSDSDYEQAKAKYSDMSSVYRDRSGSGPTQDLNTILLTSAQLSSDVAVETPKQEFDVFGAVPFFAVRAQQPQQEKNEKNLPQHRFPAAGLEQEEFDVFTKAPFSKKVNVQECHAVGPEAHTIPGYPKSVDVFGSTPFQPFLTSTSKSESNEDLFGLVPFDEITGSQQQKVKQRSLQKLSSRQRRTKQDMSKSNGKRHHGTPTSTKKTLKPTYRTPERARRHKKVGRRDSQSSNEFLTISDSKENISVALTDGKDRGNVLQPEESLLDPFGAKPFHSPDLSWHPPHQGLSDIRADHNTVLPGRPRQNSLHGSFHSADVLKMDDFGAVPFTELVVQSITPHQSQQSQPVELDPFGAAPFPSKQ
UniProt O95429: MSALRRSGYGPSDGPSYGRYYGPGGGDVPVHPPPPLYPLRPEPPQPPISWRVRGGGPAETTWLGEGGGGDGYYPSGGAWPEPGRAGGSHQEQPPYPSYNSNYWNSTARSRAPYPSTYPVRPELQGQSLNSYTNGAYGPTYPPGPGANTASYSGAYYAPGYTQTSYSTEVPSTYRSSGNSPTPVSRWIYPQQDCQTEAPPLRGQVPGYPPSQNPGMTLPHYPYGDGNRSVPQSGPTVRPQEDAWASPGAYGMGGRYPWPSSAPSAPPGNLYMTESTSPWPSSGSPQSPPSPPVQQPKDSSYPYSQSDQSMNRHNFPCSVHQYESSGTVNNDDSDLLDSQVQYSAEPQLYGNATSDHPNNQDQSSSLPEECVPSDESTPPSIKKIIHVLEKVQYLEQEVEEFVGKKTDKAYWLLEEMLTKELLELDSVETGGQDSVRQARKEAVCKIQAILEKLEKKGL
UniProt Q9NUP1: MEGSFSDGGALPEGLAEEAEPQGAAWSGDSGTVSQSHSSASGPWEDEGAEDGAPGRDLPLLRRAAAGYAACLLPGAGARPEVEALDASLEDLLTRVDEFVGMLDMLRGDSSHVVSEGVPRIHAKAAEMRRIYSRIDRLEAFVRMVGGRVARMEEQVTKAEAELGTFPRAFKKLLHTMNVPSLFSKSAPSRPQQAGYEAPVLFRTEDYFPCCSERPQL
UniProt Q13867: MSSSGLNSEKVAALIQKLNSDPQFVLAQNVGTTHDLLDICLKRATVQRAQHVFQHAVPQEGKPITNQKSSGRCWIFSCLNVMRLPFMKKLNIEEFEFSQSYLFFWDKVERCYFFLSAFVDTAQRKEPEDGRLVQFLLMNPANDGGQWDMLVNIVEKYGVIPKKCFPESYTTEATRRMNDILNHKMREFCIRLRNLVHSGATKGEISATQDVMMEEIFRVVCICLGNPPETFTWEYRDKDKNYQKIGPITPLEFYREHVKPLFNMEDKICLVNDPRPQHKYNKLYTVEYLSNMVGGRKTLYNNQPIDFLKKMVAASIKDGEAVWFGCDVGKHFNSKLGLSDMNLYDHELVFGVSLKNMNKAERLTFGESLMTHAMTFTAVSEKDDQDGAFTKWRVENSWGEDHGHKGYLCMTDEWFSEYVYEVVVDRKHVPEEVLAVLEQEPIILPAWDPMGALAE
UniProt Q53S33: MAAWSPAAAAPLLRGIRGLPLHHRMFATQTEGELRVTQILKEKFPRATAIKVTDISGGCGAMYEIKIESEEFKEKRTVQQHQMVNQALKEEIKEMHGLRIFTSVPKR
UniProt P46736, whole entry, looked up: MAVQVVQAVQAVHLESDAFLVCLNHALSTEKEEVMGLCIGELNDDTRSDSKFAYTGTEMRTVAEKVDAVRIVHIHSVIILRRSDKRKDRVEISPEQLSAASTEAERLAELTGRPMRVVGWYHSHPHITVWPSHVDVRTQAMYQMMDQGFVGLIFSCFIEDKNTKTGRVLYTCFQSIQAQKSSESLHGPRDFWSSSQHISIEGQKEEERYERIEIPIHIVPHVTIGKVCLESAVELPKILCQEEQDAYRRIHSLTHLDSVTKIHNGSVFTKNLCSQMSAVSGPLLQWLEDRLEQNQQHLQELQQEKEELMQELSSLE
UniProt Q14692: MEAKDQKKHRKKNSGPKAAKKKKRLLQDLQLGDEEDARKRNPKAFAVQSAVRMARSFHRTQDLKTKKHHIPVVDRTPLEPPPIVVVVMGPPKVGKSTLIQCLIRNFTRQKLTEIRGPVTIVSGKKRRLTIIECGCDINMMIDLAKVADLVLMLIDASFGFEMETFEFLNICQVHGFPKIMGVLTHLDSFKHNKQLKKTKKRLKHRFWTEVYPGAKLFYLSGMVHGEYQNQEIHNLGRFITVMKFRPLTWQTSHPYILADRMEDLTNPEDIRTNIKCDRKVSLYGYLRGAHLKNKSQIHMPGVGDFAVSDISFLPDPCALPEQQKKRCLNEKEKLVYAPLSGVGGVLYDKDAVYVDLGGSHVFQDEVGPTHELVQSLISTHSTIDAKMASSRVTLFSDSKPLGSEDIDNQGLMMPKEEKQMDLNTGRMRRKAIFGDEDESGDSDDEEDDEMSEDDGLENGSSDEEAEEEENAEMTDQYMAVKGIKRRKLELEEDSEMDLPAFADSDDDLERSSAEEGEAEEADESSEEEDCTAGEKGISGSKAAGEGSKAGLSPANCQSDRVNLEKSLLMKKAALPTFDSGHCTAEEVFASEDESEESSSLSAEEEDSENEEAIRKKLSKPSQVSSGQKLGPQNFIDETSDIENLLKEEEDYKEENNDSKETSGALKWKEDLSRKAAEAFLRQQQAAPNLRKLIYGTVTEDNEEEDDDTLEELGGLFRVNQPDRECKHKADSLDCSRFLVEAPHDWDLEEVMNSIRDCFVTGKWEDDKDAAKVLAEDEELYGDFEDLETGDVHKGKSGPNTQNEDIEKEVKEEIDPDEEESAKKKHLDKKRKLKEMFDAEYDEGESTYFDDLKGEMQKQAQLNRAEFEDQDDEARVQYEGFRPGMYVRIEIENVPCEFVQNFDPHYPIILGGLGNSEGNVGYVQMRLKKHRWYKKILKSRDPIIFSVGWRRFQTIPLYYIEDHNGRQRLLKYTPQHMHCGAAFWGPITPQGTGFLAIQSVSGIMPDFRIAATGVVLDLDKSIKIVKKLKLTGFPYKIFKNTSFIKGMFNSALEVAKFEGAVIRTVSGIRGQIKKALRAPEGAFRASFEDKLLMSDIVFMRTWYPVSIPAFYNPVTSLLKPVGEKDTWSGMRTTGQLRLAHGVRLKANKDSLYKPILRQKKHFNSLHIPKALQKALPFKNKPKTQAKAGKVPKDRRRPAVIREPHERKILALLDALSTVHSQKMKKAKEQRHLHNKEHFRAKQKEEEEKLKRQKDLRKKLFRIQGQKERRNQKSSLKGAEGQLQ
UniProt P78537: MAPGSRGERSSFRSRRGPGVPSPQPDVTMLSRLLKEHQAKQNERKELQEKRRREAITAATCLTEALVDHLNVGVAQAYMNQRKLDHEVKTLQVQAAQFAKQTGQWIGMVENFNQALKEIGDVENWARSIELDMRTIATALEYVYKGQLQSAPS
UniProt Q07817, whole entry, looked up: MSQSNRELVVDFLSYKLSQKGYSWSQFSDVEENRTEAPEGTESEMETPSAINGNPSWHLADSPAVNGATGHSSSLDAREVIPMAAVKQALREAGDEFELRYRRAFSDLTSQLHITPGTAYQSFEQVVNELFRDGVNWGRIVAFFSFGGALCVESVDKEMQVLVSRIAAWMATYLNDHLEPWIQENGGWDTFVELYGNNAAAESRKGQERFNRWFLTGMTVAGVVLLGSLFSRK

Experiments:
Assay in all cases: log2 fold change, soluble protein after heating vs DMSO (PISA); higher = thermal stabilisation; K562 lysate, 10 uM; active = over 0.2 and 3.5 SD of the protein, either way, in both replicates (recomputed)
erlotinib = compound: C#Cc1cccc(Nc2ncnc3cc(OCCOC)c(OCCOC)cc23)c1 [erlotinib]
Method in brief: (§1)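 Log-two fold change in thermal stability relative to solvent controls is reported from duplicates. For each sample, crude K562 extract from dounce-homogenised pellets in PBS pH 7.4 with 1 mM MgCl2, at 1 mg/mL protein, was treated with 10 μM compound for 30 min. Aliquots heated for 3 min across 48°C-58°C were pooled, brought to 0.5% NP-40 at 4°C and cleared at 21,000xg for 90 min. The supernatant was quantified by TMTpro 16plex LC-MS/MS with channel sums equalised.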

[1] = compound: C/C(=N\NC(=O)C1=CC(=CC=C1)S(=O)(=O)N2CCOCC2)/C3=C(C=CC(=C3)Cl)O
Method in brief: as §1

[2] = compound: C1=CC(=CC=C1C2=NC3=C(N2)C=C(C=C3)C(=O)N)OC4=CC=C(C=C4)Cl
Method in brief: as §1

[3] = compound: C1=CC2=C(C=CC(=C2)/C=C\3/C(=O)NC(=NCC4=CC=CS4)S3)N=C1
Method in brief: as §1

[4] = compound: C1=CC2=NC=CN=C2C=C1/C=C/3\C(=O)NC(=O)S3
Method in brief: as §1

[5] = compound: C1=CC=C(C=C1)C2=NC(=C(N2)C3=CC=NC=C3)C4=CC(=C(C=C4)Cl)O
Method in brief: as §1

[6] = compound: C1=CC=C2C(=C1)C3=NNC4=CC=CC(=C43)C2=O
Method in brief: as §1

[7] = compound: C1CCN(C1)C(=O)NC2=CC=CC(=C2)NC3=NC=C(C(=N3)NCCC4=CN=CN4)Br
Method in brief: as §1

[8] = compound: C1CN(CCC1(CC2=CC=C(C=C2)Cl)N)C3=NC=NC4=C3C=CN4
Method in brief: as §1

IRAK-1-4 Inhibitor I = compound: C1COCCN1CCN2C3=CC=CC=C3N=C2NC(=O)C4=CC(=CC=C4)[N+](=O)[O-] [IRAK-1-4 Inhibitor I]
Method in brief: as §1

ibrutinib = compound: C=CC(=O)N1CCC[C@@H](n2nc(-c3ccc(Oc4ccccc4)cc3)c3c(N)ncnc32)C1 [ibrutinib]
Method in brief: as §1

[9] = compound: CC(=O)c1cnc2ccc(-c3cc(Cl)c(O)c(Cl)c3)nc2c1N[C@H]1CC[C@H](CN(C)C)CC1
Method in brief: as §1

ralimetinib = compound: CC(C)(C)Cn1c(N)nc2ccc(-c3[nH]c(C(C)(C)C)nc3-c3ccc(F)cc3)nc21 [ralimetinib]
Method in brief: as §1

[10] = compound: CC(C)(O)CC(=O)NCCn1ccc2ncnc(Nc3ccc(Oc4cccc(C(F)(F)F)c4)c(Cl)c3)c21
Method in brief: as §1

[11] = compound: CC(C)C1=C2N=C(C=C(N2N=C1)NCC3=CC=CC=C3)NCCCCCCN
Method in brief: as §1

[12] = compound: CC1=C(C(CC(=O)N1)C2=CC=C(C=C2)C(F)(F)F)C(=O)NC3=C(C=C4C(=C3)C=NN4)F
Method in brief: as §1

[13] = compound: CC1=C(C2=C(C=C1)C(=O)C3=CC=CC=C3N2CCCN)C
Method in brief: as §1

[14] = compound: CC1=C(C=C(C=C1)NC(=O)C2=CC(=CC=C2)C(C)(C)C#N)NC3=CC4=C(C=C3)N=CN(C4=O)C
Method in brief: as §1

[15] = compound: CC1=C(C=C(C=C1)NC(=O)C2=CC(=CC=C2)N(C)C)NC(=O)C3=CC=C(C=C3)O
Method in brief: as §1

[16] = compound: CC1=CC=C(C=C1)SC2=C3C=C(SC3=CN=C2)C(=O)N
Method in brief: as §1

Measured: log2 fold change

BANF1 (UniProt O75531)
inactive: erlotinib 0.069 | [1] -0.016 | [2] -0.035 | [3] -0.105 | [4] -0.03 | [5] 0.036 | [6] -0.069 | [7] 0 | [8] -0.016 | IRAK-1-4 Inhibitor I -0.02 | ibrutinib 0.017 | [9] -0.065 | ralimetinib -0.051 | [10] 0.014 | [11] 0.014 | [12] 0.026 | [13] -0.01 | [14] 0.097 | [15] 0.055 | [16] -0.028

BABAM2 (UniProt Q9NXR7)
inactive: erlotinib 0.011 | [1] -0.034 | [2] 0.007 | [3] -0.007 | [4] -0.004 | [5] 0.018 | [6] -0.047 | [7] -0.021 | [8] 0.01 | IRAK-1-4 Inhibitor I 0.011 | ibrutinib 0.017 | [9] -0.009 | ralimetinib 0.005 | [10] -0.011 | [11] -0.036 | [12] -0.001 | [13] 0.013 | [14] 0.003 | [15] -0.011 | [16] -0.003

BLM (UniProt P54132)
inactive: erlotinib -0.034 | [1] 0.061 | [2] -0.042 | [3] 0.011 | [4] 0.032 | [5] 0.079 | [6] -0.059 | [7] -0.026 | [8] -0.01 | IRAK-1-4 Inhibitor I -0.02 | ibrutinib 0.128 | [9] 0.026 | ralimetinib -0.015 | [10] 0.031 | [11] -0.005 | [12] -0.019 | [13] 0.03 | [14] -0.058 | [15] 0.019 | [16] 0.036

BCR (UniProt P11274)
inactive: erlotinib -0.006 | [1] 0.037 | [2] 0.047 | [3] 0.012 | [4] -0.01 | [5] 0.004 | [6] -0.052 | [7] -0.025 | [8] -0.011 | IRAK-1-4 Inhibitor I -0.041 | ibrutinib -0.026 | [9] 0.037 | ralimetinib 0.025 | [10] -0.025 | [11] 0.014 | [12] -0.001 | [13] -0.032 | [14] 0.025 | [15] 0 | [16] 0.017

BNIP1 (UniProt Q12981)
inactive: erlotinib -0.028 | [1] 0.05 | [2] -0.048 | [3] -0.011 | [4] -0.026 | [5] 0.071 | [6] -0.009 | [7] 0.002 | [8] 0.018 | IRAK-1-4 Inhibitor I -0.004 | ibrutinib 0.038 | [9] 0.005 | ralimetinib 0.01 | [10] -0.011 | [11] 0.051 | [12] 0.046 | [13] 0.005 | [14] 0.002 | [15] 0.024 | [16] 0.012

BCAT2 (UniProt O15382)
inactive: erlotinib -0.012 | [1] -0.001 | [2] 0.009 | [3] -0.012 | [4] -0.012 | [5] 0.008 | [6] -0.003 | [7] 0.015 | [8] 0.011 | IRAK-1-4 Inhibitor I 0.014 | ibrutinib 0.018 | [9] -0.003 | ralimetinib 0.013 | [10] -0.045 | [11] -0.002 | [12] -0.013 | [13] -0.012 | [14] 0.008 | [15] -0.004 | [16] 0.009

BOLA2 (UniProt Q9H3K6)
inactive: erlotinib 0.008 | [1] 0.078 | [2] -0.112 | [3] -0.007 | [4] 0.032 | [5] 0.01 | [6] 0.039 | [7] 0.034 | [8] 0.006 | IRAK-1-4 Inhibitor I 0.013 | ibrutinib -0.01 | [9] 0.02 | ralimetinib -0.025 | [10] 0.008 | [11] -0.025 | [12] -0.059 | [13] 0.038 | [14] -0.029 | [15] -0.022 | [16] 0.039

BMP2K (UniProt Q9NSY1)
inactive: erlotinib 0.179 | [1] -0.105 | [2] -0.07 | [3] 0.581 | [4] 0.241 | [5] -0.002 | [6] 0.672 | [7] 0.477 | [8] -0.062 | IRAK-1-4 Inhibitor I 0.61 | ibrutinib -0.005 | [9] 0.675 | ralimetinib -0.003 | [10] -0.055 | [11] -0.005 | [12] -0.01 | [13] -0.033 | [14] -0.021 | [15] 0.004 | [16] 0.082

BAG4 (UniProt O95429)
active: [14] -0.375
inactive: erlotinib -0.036 | [1] 0.046 | [2] 0.075 | [3] -0.017 | [4] 0.004 | [5] -0.038 | [6] 0.021 | [7] 0.047 | [8] 0.017 | IRAK-1-4 Inhibitor I 0 | ibrutinib 0.082 | [9] 0.005 | ralimetinib -0.009 | [10] 0.02 | [11] -0.035 | [12] -0.014 | [13] 0 | [15] -0.021 | [16] -0.017

BLOC1S4 (UniProt Q9NUP1)
inactive: erlotinib 0.023 | [1] -0.06 | [2] 0 | [3] -0.024 | [4] -0.022 | [5] 0.001 | [6] 0.027 | [7] 0.122 | [8] 0.099 | IRAK-1-4 Inhibitor I 0 | ibrutinib 0.067 | [9] -0.016 | ralimetinib 0.012 | [10] -0.007 | [11] 0.002 | [12] 0.093 | [13] 0.027 | [14] 0.027 | [15] -0.003 | [16] 0.003

BLMH (UniProt Q13867)
inactive: erlotinib -0.003 | [1] -0.02 | [2] 0.027 | [3] 0.003 | [4] 0.042 | [5] -0.003 | [6] -0.002 | [7] -0.019 | [8] 0.001 | IRAK-1-4 Inhibitor I 0.025 | ibrutinib -0.033 | [9] 0.027 | ralimetinib 0.028 | [10] -0.021 | [11] 0.019 | [12] -0.035 | [13] 0.022 | [14] 0.009 | [15] 0.002 | [16] 0.03

Quoted from the entries so far (two entries):
BMP2K (UniProt Q9NSY1)
inactive: erlotinib 0.179 | [1] -0.105 | [2] -0.07 | [3] 0.581 | [4] 0.241 | [5] -0.002 | [6] 0.672 | [7] 0.477 | [8] -0.062 | IRAK-1-4 Inhibitor I 0.61 | ibrutinib -0.005 | [9] 0.675 | ralimetinib -0.003 | [10] -0.055 | [11] -0.005 | [12] -0.01 | [13] -0.033 | [14] -0.021 | [15] 0.004 | [16] 0.082

BAG4 (UniProt O95429)
active: [14] -0.375
inactive: erlotinib -0.036 | [1] 0.046 | [2] 0.075 | [3] -0.017 | [4] 0.004 | [5] -0.038 | [6] 0.021 | [7] 0.047 | [8] 0.017 | IRAK-1-4 Inhibitor I 0 | ibrutinib 0.082 | [9] 0.005 | ralimetinib -0.009 | [10] 0.02 | [11] -0.035 | [12] -0.014 | [13] 0 | [15] -0.021 | [16] -0.017

Further records

BOLA3 (UniProt Q53S33)
inactive: erlotinib 0.023 | [1] 0.005 | [2] 0.016 | [3] -0.047 | [4] 0.026 | [5] -0.026 | [6] 0.018 | [7] 0.021 | [8] -0.008 | IRAK-1-4 Inhibitor I 0.026 | ibrutinib 0.044 | [9] -0.002 | ralimetinib -0.025 | [10] -0.007 | [11] 0.014 | [12] 0.02 | [13] -0.012 | [14] -0.055 | [15] -0.025 | [16] -0.013

BRCC3 (UniProt P46736)
inactive: erlotinib -0.008 | [1] 0.122 | [2] 0.041 | [3] -0.054 | [4] 0.003 | [5] 0.013 | [6] 0.054 | [7] -0.035 | [8] -0.054 | IRAK-1-4 Inhibitor I -0.041 | ibrutinib 0.009 | [9] 0.023 | ralimetinib -0.026 | [10] 0.03 | [11] -0.028 | [12] -0.048 | [13] -0.018 | [14] 0.049 | [15] -0.072 | [16] 0.018

BMS1 (UniProt Q14692)
inactive: erlotinib -0.029 | [1] -0.089 | [2] -0.027 | [3] 0.028 | [4] -0.046 | [5] 0.034 | [6] 0.039 | [7] 0.006 | [8] 0.01 | IRAK-1-4 Inhibitor I -0.01 | ibrutinib 0.095 | [9] 0.018 | ralimetinib 0.018 | [10] -0.041 | [11] -0.008 | [12] -0.011 | [13] 0.007 | [14] 0.049 | [15] 0.034 | [16] 0.032

BLOC1S1 (UniProt P78537)
inactive: erlotinib 0.008 | [1] -0.035 | [2] 0.007 | [3] 0.057 | [4] -0.007 | [5] 0.034 | [6] -0.038 | [7] -0.003 | [8] -0.004 | IRAK-1-4 Inhibitor I -0.043 | ibrutinib 0.078 | [9] -0.06 | ralimetinib 0.044 | [10] -0.001 | [11] -0.092 | [12] -0.111 | [13] 0.015 | [14] 0.021 | [15] -0.043 | [16] -0.021

BCL2L1 (UniProt Q07817)
inactive: erlotinib -0.029 | [1] -0.019 | [2] -0.004 | [3] 0.006 | [4] -0.005 | [5] -0.001 | [6] 0.014 | [7] 0.036 | [8] 0.031 | IRAK-1-4 Inhibitor I 0.022 | ibrutinib 0.004 | [9] 0 | ralimetinib 0.03 | [10] -0.025 | [11] -0.032 | [12] -0.024 | [13] -0.003 | [14] 0.006 | [15] -0.022 | [16] -0.026
